In PubChem BioAssay AID1508600 (Functional Genomics Laboratory (NCATS/FGL), 2020):
Out of some 53,000 sequences screened, about 3,700 (7%) were called active.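 The calls were made as follows: active = gene knockdowns whose robust z-score for IL-1 alpha signal is at least 2 or at most -2, so actives lie on both sides; inactive = the rest.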 The list shows a part of the results.

assay: Components of the Cytosolic LPS Sensing Pathway: Gene Identification via Genome-wide siRNA Screen; conditions: RAW264.7 macrophages, IL-1a HTRF, actives lie on both sides, screened at 100 nM (by protocol), cells primed 5 h with Pam3CSK4 first;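 also: robust z of the log signal after scaling to non-targeting control siRNA wells of the plate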
Summary of the method: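 RAW264.7; siRNA 100 nM final, RNAiMAX, 48h 37 degrees C; Pam3CSK4 5 h; LipidA + TransIT-TKO 24 h; IL-1a HTRF; CellTiter-Glo viability; robust z vs negative-control median.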

Sequence | z-score
UACUCGUGGUGUUUGCAAGTT against Olfr1154 | inactive: 0.873
GCACAGUACCAUAACGGCUTT against Nampt | active: -2.06
GGACUCUCAACUUCCAAUGTT against Spire2 | inactive: 0.743
GCAACUAUUGUCUAAAUGCTT against Prpf40a | inactive: -0.611
GGAGAGUGAGAAGAUCUUGTT against Ecel1 | inactive: -0.163
CGGAGUCCAACCCAUAAAUTT against Blzf1 | inactive: 0.184
CAGAAUUCAGAUAAUCUUGTT against Defb22 | inactive: 1.06
GCAUGAAUGUUCUGAGUUCTT against Sh3bgrl | inactive: 0.593
GCGAUGACCAAAAAUAUUGTT against Tmc1 | inactive: -0.0131
GCCUUUAAUUUUGACAACUTT against Vmn1r211 | inactive: 1.24
GGAGAUCAAAGAAUCUUGGTT against Arhgap45 | active: -4.45
GGUUCUGGAAGGACAGGAATT against Samd14 | inactive: 0.064
GGUGUCCAUGCUAGCUGUATT against Best2 | active: 2.97
CGCUAUGAGGCAGCUAAUUTT against Psma6 | active: -2.27
GGGCUCUCAAUAUUACCUCTT against Car11 | inactive: -1.38
GCUUUUCACAUGAUGUGUUTT against Klrb1a | inactive: -0.5
GCCUGCUUAUAUAGGGUGUTT against Tmed9 | inactive: -1.83
GGUCGCUACAAGAUGACUUTT against Hapln4 | inactive: 0.289
CCACUUCCUUACGAUUGAUTT against Aadacl4fm1 | active: -2.09
GGUGACUCUACUGGAUUUUTT against Coq8b | inactive: -0.395
GGCUGACAGAAGGAUGCUCTT against Rps27 | inactive: 0.213
CCCUACUGAGAUCUUAGAUTT against Pole | inactive: -0.0438
GGCUCAAAACAGCAAGAUCTT against Angptl4 | inactive: -0.0982
GCUCAACACUCGACAUUGUTT against Rrm1 | active: -2.56
GGUACAGAAAAUCUCUAUGTT against Ccdc96 | inactive: 0.59
GGCUGUUGAACUUAAUCCCTT against Tomm70a | active: -2.25
GGAUGCUUACUUACCUCAUTT against Tas2r107 | inactive: -1.06
GCAAGACUCAGAGAGGUGGTT against A730020M07Rik | inactive: -1.34
GGAACUGCUCGUAGGAAGATT against Btf3 | inactive: -0.337

Look-ups from above:
z-score, GGCUGACAGAAGGAUGCUCTT against Rps27 is entered as inactive: 0.213
z-score, GGACUCUCAACUUCCAAUGTT against Spire2 is entered as inactive: 0.743
